The source of these data is paper doi:10.1101/2021.07.21.453204.

Holding throughout (assay): two-hybrid
Test [1] concerns the target T1, RING1A, yeast two-hybrid fusion (Arabidopsis thaliana) (UniProt Q9FKW0).
T1 sequence: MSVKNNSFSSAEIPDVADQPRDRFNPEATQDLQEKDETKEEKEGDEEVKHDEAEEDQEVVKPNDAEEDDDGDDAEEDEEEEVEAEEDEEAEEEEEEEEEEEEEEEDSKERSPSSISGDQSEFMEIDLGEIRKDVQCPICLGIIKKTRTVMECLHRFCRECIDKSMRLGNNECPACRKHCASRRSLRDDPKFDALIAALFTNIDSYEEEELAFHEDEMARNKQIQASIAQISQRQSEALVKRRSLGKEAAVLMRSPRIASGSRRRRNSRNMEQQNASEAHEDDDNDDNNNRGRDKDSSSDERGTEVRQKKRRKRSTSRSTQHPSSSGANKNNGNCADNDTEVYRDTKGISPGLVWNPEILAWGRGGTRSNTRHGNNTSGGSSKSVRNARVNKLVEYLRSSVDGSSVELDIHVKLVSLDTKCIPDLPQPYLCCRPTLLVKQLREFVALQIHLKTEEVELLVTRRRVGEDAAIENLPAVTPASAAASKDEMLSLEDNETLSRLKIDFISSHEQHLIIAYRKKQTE

Test [2] addresses T2, RING1B, yeast two-hybrid fusion (Arabidopsis thaliana) (UniProt Q0WX00).
T2 sequence: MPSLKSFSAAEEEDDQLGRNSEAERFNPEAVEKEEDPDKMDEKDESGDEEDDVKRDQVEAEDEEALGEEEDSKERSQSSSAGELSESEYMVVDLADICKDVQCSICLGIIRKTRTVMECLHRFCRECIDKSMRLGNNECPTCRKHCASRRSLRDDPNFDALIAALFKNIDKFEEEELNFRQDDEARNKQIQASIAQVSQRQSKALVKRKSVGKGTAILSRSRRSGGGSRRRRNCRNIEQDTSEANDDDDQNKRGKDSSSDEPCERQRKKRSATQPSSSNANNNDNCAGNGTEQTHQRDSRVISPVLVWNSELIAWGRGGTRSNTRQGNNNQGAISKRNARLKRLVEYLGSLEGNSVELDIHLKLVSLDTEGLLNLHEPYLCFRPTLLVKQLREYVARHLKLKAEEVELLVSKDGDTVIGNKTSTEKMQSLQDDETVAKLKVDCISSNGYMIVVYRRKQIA

For test [3], the target named is T3, VIVIPAROUS1/ABI3-LIKE (VAL1), yeast two-hybrid fusion (Arabidopsis thaliana) (UniProt Q8W4L5).
T3 sequence: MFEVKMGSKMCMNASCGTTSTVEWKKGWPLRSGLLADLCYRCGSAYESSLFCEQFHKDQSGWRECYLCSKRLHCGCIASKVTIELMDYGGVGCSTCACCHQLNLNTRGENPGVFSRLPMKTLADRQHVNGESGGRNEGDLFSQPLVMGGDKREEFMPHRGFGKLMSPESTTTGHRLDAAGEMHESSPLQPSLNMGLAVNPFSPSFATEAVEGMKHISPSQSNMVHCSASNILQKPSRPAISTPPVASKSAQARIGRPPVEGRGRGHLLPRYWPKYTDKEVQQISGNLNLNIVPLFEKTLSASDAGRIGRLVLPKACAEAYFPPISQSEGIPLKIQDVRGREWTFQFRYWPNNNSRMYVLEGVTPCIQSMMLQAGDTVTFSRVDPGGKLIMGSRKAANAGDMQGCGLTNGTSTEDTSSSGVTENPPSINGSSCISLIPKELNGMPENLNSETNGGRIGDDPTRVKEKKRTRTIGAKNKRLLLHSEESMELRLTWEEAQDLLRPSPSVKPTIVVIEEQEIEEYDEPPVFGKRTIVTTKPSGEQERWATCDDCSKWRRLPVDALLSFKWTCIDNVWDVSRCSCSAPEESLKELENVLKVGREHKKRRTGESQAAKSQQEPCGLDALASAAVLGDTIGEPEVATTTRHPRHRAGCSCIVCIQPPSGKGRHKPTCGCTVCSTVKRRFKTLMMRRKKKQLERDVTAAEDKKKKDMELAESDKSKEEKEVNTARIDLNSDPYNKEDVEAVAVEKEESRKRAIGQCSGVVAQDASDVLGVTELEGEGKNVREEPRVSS

These are yes or no findings as the source states them, for the method shown. Some binding calls cover weakened binding; strength is not graded here. Sequences can lack the tags named with a protein.

B1: NODULIN HOMEOBOX (NDX), yeast two-hybrid fusion (protein, UniProt F4JI44 1-913)
chain: MVRLLQPKHMVQAVNALHWRNSVEFHKLLKDNGDFSICFNSEQVLPQKISVEKMVKMLPRHLIAVVMTPNKDGKSRYILCGIRLLQTLCDLTPRNAKLEQVLLDDVKLSAQMIDLVILVIIALGRNRKESCNSNKESLLEATLVASCLHLFHGFISPNSQDLVLVLLAHPRVDVFIDSAFGAVLNVVISLKAKLLYRQTDSPKKLGASSVEEVNFHCQQAEAALQFLHSLCQHKPFRERVAKNKELCGKGGVLRLAQSILSLTITPEFVGATVTIASTSRMKAKVLSILQHLFEAESVSFLDEVANAGNLHLAKTVASEVLKLLRLGLSKASMATASPDYPMGFVLLNAMRLADVLTDDSNFRSFFTEHFSMVLSAVFCLSHGDFLSMLCSSDLSSREDDANVDYDLFKSAGWILSVFSSSGQSVTPQFKLSLQNNLTMSSYAHQRTSLFIKMIANLHCFVPNVCQEQDRNRFIQNVMSGLRKDPSSILIKMLPGSSYTPVAQRGTGVCRNLGSLLRHAESLIPSSLNEEDFLLLRVFCDQLQPLIHSEFEESQVQVKVKKLFALLYIGFTILWLICLVTLIQDIEGRGGNLSGKLKELLNLNNEEASEDCDVRVEGVMTKQGVNEEIDTVERLKESDADASNLETSGSDTSSNRGKGLVEEGELVQNMSKRFKGSASGEVKEDEKSETFLVFEKQKKKRKRSIMNADQMGMIEKALAEEPDLQRNSASRQLWADKISQKGSEVITSSQLKNWLNNRKAKLARANKQTGPAHDNNSSGDLPESPGDENTWQQKPSTPIKDQTVTETPKTGENLMRTSSSSEEGIKQGQQVRLMDERGDEIGKGTVLRTDGEWNGLSLETRQICVVDVMELSESYDGSKKMIPYGSDDVGRTFTEANSRFGVMRVAWDVNKLQY
In the case of B1, the binding entry in test [1] is given as “binds”; in test [2] it was “binds”; in test [3], “no binding”.
